Results are given in words; binding and its absence hold for the method and conditions named. Some results given as binding are weak or reduced against the parent protein; the word gives no strength. Sequences can lack the tags named with a protein.
Tests used:
[1] = molecular target: LanRFP (red lancelet fluorescent protein), His-tagged recombinant protein expressed in E. coli (Brachiostoma lanceolatum (lancelet)); assay: SDS-PAGE (denaturing electrophoresis), self-association into a homotetramer
[2] = molecular target: LanRFP (red lancelet fluorescent protein), His-tagged recombinant protein expressed in E. coli (Brachiostoma lanceolatum (lancelet)); assay: SDS-PAGE after boiling in SDS/DTT loading dye, band at the tetramer position (~105 kD)

- binding [1]: binds
- binding [2]: binds
B1: LanRFP (red lancelet fluorescent protein), His-tagged recombinant protein expressed in E. coli (protein)
chain: MVSKGEEDNMAPLPATHDLHISGSINGHEFDLEGSGKGNAKEGYQELHLKSNKGDLSFSPWILVPNIGYGFYQYLPFPDGAMSPYQAAMHDGSGYVMHRSMQFEDGAMLHSDHRYIYKGNHIKGEFRLTGSGFPADGPVMTNSLTAADWCVDKLLYPNDNTIIGKFDWTYTTTSGKRYQSDVQTNVTFGKPIAADILKKQPMFVFRKVELKHTKTELNFKQWQKAFQDIAGMDELYK

— patent US20180049962A1
